In article PMC7343696 (EJNMMI Research, 2020):
Where a name gives a salt, the structure may show the parent alone.

Experiment: [125I]MIBG levels in normal tissues of xenografted mice
Assay type: in vivo, BALB/c nu/nu mice

SMILES	Decrease in MIBG levels in the liver (20 mg/kg IP)	Increase in MIBG levels in the liver (2 mg/kg IP)
CN(C)CCCC1(c2ccc(F)cc2)OCc2cc(C#N)ccc21 (centres unmarked) [Citalopram, citalopram-HBr]	35%	–
Fc1ccc([C@@H]2CCNC[C@H]2COc2ccc3c(c2)OCO3)cc1 [Paroxetine, paroxetine-HCl]	–	17%
